# Source: PubChem BioAssay AID1224826 (NIAID, 2016)
# Assay: 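Regulators of Tlr4 signalling leading to Tnf-alpha expression in macrophages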 (primary screen)
# Cells: RAW264.7 G9 macrophages from mouse bearing reporters for p65 (GFP) and the Tnf promoter (mCherry)
# Reagents: siRNA pool against mouse genes, 100 nM
# Timing: 16 h of LPS stimulation, after 2 days of siRNA transfection
# Challenge: bacterial lipopolysaccharide (Salmonella minnesota R595), 10 ng/ml
# Detection: 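Imaged Tnf reporter mCherry in nuclei, minus background, normalised per plate to the median and expressed as robust z-scores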
# Scale: Tnf reporter robust z-score: higher = stronger Tnf promoter reporter signal after LPS; Tnf reporter intensity: higher = stronger Tnf promoter reporter signal
# Hit rule: 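Called active when robust z-score is at most -1.3, matching the median of the Tlr4 knock-down control, or over 3; control wells and wells with under 50 cells never active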
# Calls: active = Tnf reporter clearly lowered or raised; inactive = no clear change in Tnf reporter
# Shown is one part, drawn at random, of about 17,000 reagents tested. About 1,110 of all reagents (6.6%) count as active. 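Active means lowered or raised reporter signal; replicate intensities are raw and not normalised per plate.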 Entries without a mark were called inactive. Not all columns of the deposit are shown.
gene,Tnf reporter robust z-score,fewer than 50 cells in well,"Tnf reporter intensity, replicate 1"
Chn2,0.05,enough cells in well,155
Sp3os,1.75,enough cells in well,256
Smad6,-1.93 (active),enough cells in well,104
Mei1,-0.06,enough cells in well,215
Ttyh1,-1,enough cells in well,84.7
Vegfa,0.18,enough cells in well,238
Il6ra,-0.33,enough cells in well,210
Chd1,0.66,enough cells in well,276
Fancm,0.95,enough cells in well,103
Rplp0,-1.66 (active),enough cells in well,93
Dnase1l2,-0.1,enough cells in well,167
Socs4,0.01,enough cells in well,278
Dus4l,-0.24,enough cells in well,162
Prl7a1,0.8,enough cells in well,181
Tchhl1,-0.27,enough cells in well,189
Zfp54,-0.09,enough cells in well,113
Slc36a4,,fewer than 50 cells per well; well left out of calls,59.2
Or4c118,1.37,enough cells in well,234
Plxna2,1.06,enough cells in well,181
Tln1,0.92,enough cells in well,136
Dnajc8,6.51 (active),enough cells in well,457
Tnfaip8,0.31,enough cells in well,234
Akt1s1,-0.8,enough cells in well,169
Igsf3,,fewer than 50 cells per well; well left out of calls,83.6
